{"source": "PubChem BioAssay AID662", "about": "(National Center for Advancing Translational Sciences (NCATS), 2007)", "note": "Some of the results follow. The main result of the screen is listed elsewhere. These columns were measured beside it and carry no call. The list favours compounds with an active or inconclusive main result. Words in brackets tell the shape of the fitted curve; partial curves, single points and poor fits give uncertain potencies.", "data": [{"assay": "Cell signaling CRE-BLA (Fsk stim)", "settings": "CHO CRE-bla reporter (cAMP response element driving beta-lactamase), forskolin EC10, beta-lactamase ratio; measured here: 460 nm blue channel", "outline": "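CRE-bla CHO reporter cells treated with compound titration plus EC10 NKH 477 (water-soluble forskolin), incubated 3 h at 37 °C; CCF4 loading 2 h at room temperature, 460/530 nm emission ratio read, AC50 values derived for positive or negative modulators.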", "values": [{"smiles": "Cc1ccc(CC23CN4CCN(CC(C4)C2O)C3)c(C)c1", "note": "(stereo not given)", "AC50": "25.1 µM [falling, single point]"}, {"smiles": "Cc1ccc(Nc2nc(N)nc(CSc3nnnn3-c3ccccc3)n2)cc1", "AC50": "10 µM [rising, partial curve]"}, {"smiles": "COc1ccccc1-n1c(SCC(=O)N2CCCC2)nc2cccnc21", "AC50": "3.98 µM [falling, partial curve]"}, {"smiles": "CCCCNC(=O)c1nc2ncc(Br)cn2n1", "AC50": "0.794 µM [falling, full curve]"}, {"smiles": "COc1cc2oc(-c3ccccc3)cc(=O)c2cc1O", "AC50": "15.8 µM [falling, partial curve, poor fit]"}, {"smiles": "CCc1cc2c3c(c(=O)oc2cc1OC)CCCC3", "AC50": "7.94 µM [rising, partial curve]"}, {"smiles": "O=C(Oc1ccccc1)N1CCC2(CC1)CCN(c1ncccn1)CC2", "AC50": "3.98 µM [rising, single point]"}, {"smiles": "CCOC(=O)c1ccccc1NC(=O)C1COc2ccccc2O1", "note": "(stereo not given)", "AC50": "10 µM [rising, partial curve]"}, {"smiles": "CCOC(=O)C(CCC#N)(CCC#N)C(=O)OCC", "AC50": "12.6 µM [rising, single point]"}, {"smiles": "Cc1cnc(CNc2nc(-c3ccoc3)nc3ccccc23)cn1", "AC50": "7.94 µM [rising, partial curve]"}, {"smiles": "COc1ccc(-c2cc(C(=O)N3CCCc4ccccc43)no2)cc1", "AC50": "0.0794 µM [falling, full curve, poor fit]"}, {"smiles": "Cc1ccc(CNc2ccc3c(c2)ncn3C)cc1", "AC50": "7.94 µM [falling, partial curve]"}, {"smiles": "Cc1cc(N2CCC3(CC2)OCCO3)n2nc(C)c(-c3ccc(Cl)cc3)c2n1", "AC50": "3.98 µM [rising, partial curve]"}, {"smiles": "COc1ccc(C2=C(O)C(C)N(c3ccccc3)C2=N)cc1OC", "note": "(stereo not given)", "AC50": "5.01 µM [falling, full curve, poor fit]"}, {"smiles": "CCC(c1nnnn1Cc1ccco1)N(Cc1cc2cc(OC)ccc2[nH]c1=O)C1CCCCC1", "note": "(stereo not given)", "AC50": "12.6 µM [rising, single point]"}, {"smiles": "Cc1cccc(N2CCN(C(=O)CSCc3c(C)noc3C)CC2)c1C", "AC50": "7.94 µM [falling, partial curve, poor fit]"}, {"smiles": "Cc1c(CC(C)(C)C(=O)O)n(Cc2ccc(Cl)cc2)c2ccc(F)cc12", "AC50": "31.6 µM [falling, single point]"}, {"smiles": "COC(=O)c1cn(NC(=O)CC2CCCCC2)c(=O)c2ccccc12", "AC50": "0.126 µM [falling, full curve, poor fit]"}, {"smiles": "CCc1cccc(NC(=O)CS(=O)Cc2nc(-c3ccc(C)cc3)oc2C)c1", "note": "(stereo not given)", "AC50": "12.6 µM [falling, partial curve]"}, {"smiles": "Nc1ccc2oc(-c3cccc(Br)c3)nc2c1", "AC50": "10 µM [rising, partial curve]"}, {"smiles": "COc1cccc(Cn2c(=O)c(-c3cccc(F)c3)nc3cncnc32)c1", "AC50": "12.6 µM [rising, partial curve]"}, {"smiles": "Cc1cccn2cc(CCNS(=O)(=O)c3ccc4c(c3)OCCO4)nc12", "AC50": "12.6 µM [rising, partial curve]"}, {"smiles": "COc1ccc(O)c(C(=O)c2cnn(C(=O)c3cc(C)oc3C)c2)c1", "AC50": "3.98 µM [falling, partial curve]"}, {"smiles": "O=C(OCN1C(=O)c2ccccc2C1=O)c1ccc2c(=O)n3c(nc2c1)CCC3", "AC50": "12.6 µM [rising, single point]"}, {"smiles": "O=C1C(=O)N(Cc2ccco2)C(c2cccc(Cl)c2)/C1=C(\\O)c1ccc2c(c1)OCCO2", "note": "(stereo not given)", "AC50": "2.51 µM [falling, single point]"}, {"smiles": "c1ccc(CNc2ncnc3ccc(-c4ccc5c(c4)OCO5)cc23)cc1", "AC50": "5.01 µM [rising, single point]"}, {"smiles": "CC(=O)C(C)Oc1ccc2c3c(c(=O)oc2c1C)CCCC3", "note": "(stereo not given)", "AC50": "10 µM [rising, partial curve]"}, {"smiles": "O=c1c(O)c(-c2ccccc2)oc2cc(O)cc(O)c12", "AC50": "31.6 µM [rising, single point]"}, {"smiles": "Cc1cccc(CNc2nc(-c3cccnc3)nc3ccccc23)c1", "AC50": "0.631 µM [rising, single point]"}, {"smiles": "Cc1ccnc2c(N3C(=O)C4C5C=CC(C5)C4C3=O)cccc12", "note": "(stereo not given)", "AC50": "1 µM [rising, full curve]"}, {"smiles": "CCCC/C=C/C(NC(=O)c1ccc(C(F)(F)F)cc1)c1ccccc1", "note": "(stereo not given)", "AC50": "5.01 µM [rising, partial curve]"}, {"smiles": "COc1cccc(C(=O)Nc2ncc3c(n2)CC(C)(C)CC3=O)c1", "AC50": "25.1 µM [rising, single point]"}, {"smiles": "CCOc1cc(/C=N/n2cnnc2)ccc1OCC(=O)Nc1ccccc1OC", "AC50": "12.6 µM [rising, partial curve]"}, {"smiles": "Cc1nc2ccccc2c2oc(C(=O)NCCCN3CCCC3=O)cc12", "AC50": "10 µM [rising, partial curve]"}, {"smiles": "CS(=O)(=O)Nc1cccc(-c2nccc(Nc3ccc(F)cc3)n2)c1", "AC50": "3.98 µM [rising, partial curve]"}, {"smiles": "CN1C(=O)/C(=C2/C=CC=CN2C)OC1=S", "AC50": "0.00316 µM [falling, full curve, poor fit]"}, {"smiles": "CCOc1cc(C(=O)NC(C)COC)cc(OCC)c1OCC", "note": "(stereo not given)", "AC50": "0.00316 µM [falling, full curve, poor fit]"}, {"smiles": "CCCCCCSc1ncc(C#N)c(N)n1", "AC50": "10 µM [rising, partial curve]"}, {"smiles": "COc1ccc(-c2cc(C(F)(F)F)n3nc(C(=O)N4CCCCC4)cc3n2)cc1", "AC50": "10 µM [rising, partial curve]"}, {"smiles": "Cc1ccc(NC(=O)N2CCC(O)(c3ccc(Cl)cc3)CC2)cc1", "AC50": "0.501 µM [falling, full curve, poor fit]"}, {"smiles": "COc1cc(OC)c(NC2=NCCCCC2)cc1Cl", "AC50": "10 µM [falling, partial curve]"}, {"smiles": "C=CCn1c(COc2ccc(CC)cc2)nnc1SCC(=O)N(C)C1CCS(=O)(=O)C1", "note": "(stereo not given)", "AC50": "0.00316 µM [falling, full curve, poor fit]"}, {"smiles": "Cc1ccc(-c2cc(C(=O)NC3=NCCS3)c3cc(Br)ccc3n2)o1", "AC50": "12.6 µM [falling, partial curve]"}, {"smiles": "COC(=O)c1[nH]c2ccccc2c1NC(=O)CCN1CCN(C2CCCCC2)CC1", "AC50": "3.16 µM [falling, full curve, poor fit]"}, {"smiles": "COc1ncc2nc(C)c(=O)n(Cc3ccc(F)cc3)c2n1", "AC50": "10 µM [rising, partial curve]"}, {"smiles": "COc1cccc(Cn2c(=O)cnc3cnc(N4CCOCC4)nc32)c1", "AC50": "12.6 µM [rising, partial curve]"}, {"smiles": "COC(=O)c1cc(OC)c(OC)cc1NC(=O)C1CCC(=O)N1S(=O)(=O)c1ccc(C)cc1", "note": "(stereo not given)", "AC50": "10 µM [rising, partial curve]"}, {"smiles": "CN1C(=O)CSc2ccc(NC(=O)NCc3ccco3)cc21", "AC50": "0.00631 µM [falling, full curve, poor fit]"}, {"smiles": "CCOc1ccc(OCCN2C(=O)NC3(CCCc4ccccc43)C2=O)cc1", "note": "(stereo not given)", "AC50": "12.6 µM [rising, single point]"}, {"smiles": "CCc1nc(NCc2ccccn2)c2oc3ccccc3c2n1", "AC50": "3.16 µM [rising, partial curve]"}, {"smiles": "Cc1nc2ccc(N)cc2c(=O)n1Cc1ccc(Cl)cc1", "AC50": "20 µM [rising, single point]"}, {"smiles": "Cc1nc(N2CCCC2)c2ccsc2n1", "AC50": "10 µM [rising, partial curve]"}, {"smiles": "CCCCC(=O)Nc1ccc2oc(-c3cccnc3)nc2c1", "AC50": "10 µM [rising, single point]"}, {"smiles": "CCSc1ncnc2c1oc1ccccc12", "AC50": "10 µM [falling, partial curve]"}, {"smiles": "CCC1CCCCN1C(=O)c1cc(-c2ccc(Cl)c(Cl)c2)on1", "note": "(stereo not given)", "AC50": "3.98 µM [rising, partial curve]"}, {"smiles": "Cc1nnc(Sc2nc3ccccc3o2)c2ccccc12", "AC50": "3.98 µM [falling, partial curve]"}, {"smiles": "COc1cc(NC(=O)c2noc3c2CCCC3)c(OC)cc1Cl", "AC50": "25.1 µM [rising, single point]"}, {"smiles": "Cc1ccc(-n2c(SCC(=O)Nc3ccc4c(c3)OCCO4)nnc2-c2ccco2)cc1", "AC50": "5.01 µM [falling, single point]"}, {"smiles": "COC(=O)c1[nH]c2c(c1C)C(=O)CC(c1ccccc1)C2", "note": "(stereo not given)", "AC50": "1.58 µM [rising, full curve]"}, {"smiles": "O=C(Cc1ccccc1I)Nc1ccccc1", "AC50": "7.94 µM [rising, partial curve]"}, {"smiles": "COC1=C(OC)C(=O)c2ccccc2C1=O", "AC50": "25.1 µM [falling, partial curve]"}, {"smiles": "CCCCn1c(SCC(=O)N2CCN(c3ccccc3)CC2)nc2ccsc2c1=O", "AC50": "5.01 µM [falling, full curve]"}, {"smiles": "COC(=O)Nc1ccc2c(c1)N(C(=O)CCN1CCOCC1)c1ccccc1S2", "AC50": "12.6 µM [rising, partial curve]"}, {"smiles": "CC(C)(C)n1ncc2c(=O)n(CC(=O)N3CCN(c4ccccc4)CC3)cnc21", "AC50": "25.1 µM [rising, single point]"}, {"smiles": "COc1ccc(-c2nnn(CC(=O)N(CC(=O)NCCC(C)C)Cc3cccs3)n2)cc1OC", "AC50": "12.6 µM [rising, partial curve]"}, {"smiles": "COc1cc(C(=O)NCCc2cn3ccccc3n2)cc(OC)c1OC", "AC50": "6.31 µM [rising, partial curve]"}, {"smiles": "COc1cccc(C2C=C(c3ccc(Br)s3)Nc3ncnn32)c1OC", "note": "(stereo not given)", "AC50": "15.8 µM [rising, single point]"}, {"smiles": "CN(C)c1ccc(-c2nn3c(-c4ccccc4Cl)nnc3s2)cc1", "AC50": "2 µM [rising, full curve]"}, {"smiles": "O=c1[nH]c(-c2ccccc2O)nc2c1CCCC2", "AC50": "0.0316 µM [falling, full curve, poor fit]"}, {"smiles": "CNc1nc(-c2ccccc2Cl)nc2ccccc12", "AC50": "12.6 µM [rising, partial curve]"}]}]}
